{"source": "paper doi:10.1101/2022.06.28.497953", "binders": {"B1": {"name": "His-tagged BmCBP(ZEA): Carotenoid-Binding Protein from Bombyx mori, residues 68-297, zeaxanthin-bound holoform (domain or fragment, UniProt Q8MYA9 68-297)", "chain": "SIDEYKSQANESMANAWRIITLPNWTVEKRGTVRGDVVESRKVEGFGKVYRFTGVVNCPARFLYEEFKNNLTKLPEWNPTILKCEIIKEIGDGVDLSYQVTAGGGRGIITPRDFVILRRTALLSREGRVVDDNPHGYISSGVSVQVPGYPPLKEMVRGHNKVGCWYLQPRTVQTPGGKIEDQALFQWLMCCDLKGKIPQFVLDVAFATVMLDYIVHVRKFVAEAKARAEI"}}, "biological_target": "His-tagged BmCBP(ZEA): Carotenoid-Binding Protein from Bombyx mori, residues 68-297, zeaxanthin-bound holoform (Bombyx mori) (UniProt Q8MYA9)", "experiment": "SEC-SAXS", "note": "Results are given in words; binding and its absence hold for the method and conditions named. Where a sequence is shown, tags or fusion partners need not be part of it."}
{"binder": "B1", "values": [{"measurement": "binding", "value": "no binding (tested: 13 mg/ml)"}]}
